In test [1] the target is human RER carrying a second, different tag (homodimer coIP) (human) (UniProt O75787). In words: co-immunoprecipitation of two differently tagged human RER constructs, transfected HEK293 cells.
Test [2] addresses full-length human RER fused to EGFP (RER full) (human) (UniProt O75787). Kind of test: co-immunoprecipitation of EGFP-fused RER constructs with PLZF-myc on anti-myc agarose, HEK293 cells.
The target in test [3] is FLAG-tagged full-length human RER (pCEP4-RER-FLAG) (human) (UniProt O75787). Kind of test: co-immunoprecipitation from transfected HEK293 cells (FLAG-tagged RER, c-myc-tagged PLZF), Western blot. A general note: A western blot detects proteins with antibodies after separation by electrophoresis.
In test [4] the target is endogenous human RER of HEK293 cells (human) (UniProt O75787). Kind of test: endogenous co-immunoprecipitation from HEK293 total lysate with anti-PLZF antibody, Western blot for RER.

By UniProt entry, the sequences of proteins in these tests, tags left out. Residues count along the entry.
UniProt O75787, residues 17-350: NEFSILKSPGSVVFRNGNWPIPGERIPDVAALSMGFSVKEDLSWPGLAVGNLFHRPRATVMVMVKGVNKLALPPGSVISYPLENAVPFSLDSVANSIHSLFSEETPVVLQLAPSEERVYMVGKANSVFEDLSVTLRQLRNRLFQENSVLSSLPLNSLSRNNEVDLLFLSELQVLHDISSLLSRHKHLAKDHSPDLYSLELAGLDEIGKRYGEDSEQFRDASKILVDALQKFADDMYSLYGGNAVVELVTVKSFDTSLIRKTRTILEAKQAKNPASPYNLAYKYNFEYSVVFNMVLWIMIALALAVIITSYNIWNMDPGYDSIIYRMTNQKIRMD

Results are given in words; binding and its absence hold for the method and conditions named. Binding seen in cells or lysates may run through a third protein. Some results given as binding are weak or reduced against the parent protein; the word gives no strength. For some of these results: Sequences can lack the tags named with a protein.

Take “human RER carrying a first tag (homodimer coIP) (from UniProt O75787 17-350) (receptor)”: the binding entry in test [1] is reported as “binds”.

B1: c-myc-tagged full-length human PLZF (pCEP4-PLZF-myc) (protein, UniProt Q05516 1-673, looked up, not shown: small tags and cut ends)
chain: MDLTKMGMIQLQNPSHPTGLLCKANQMRLAGTLCDVVIMVDSQEFHAHRTVLACTSKMFEILFHRNSQHYTLDFLSPKTFQQILEYAYTATLQAKAEDLDDLLYAAEILEIEYLEEQCLKMLETIQASDDNDTEATMADGGAEEEEDRKARYLKNIFISKHSSEESGYASVAGQSLPGPMVDQSPSVSTSFGLSAMSPTKAAVDSLMTIGQSLLQGTLQPPAGPEEPTLAGGGRHPGVAEVKTEMMQVDEVPSQDSPGAAESSISGGMGDKVEERGKEGPGTPTRSSVITSARELHYGREESAEQVPPPAEAGQAPTGRPEHPAPPPEKHLGIYSVLPNHKADAVLSMPSSVTSGLHVQPALAVSMDFSTYGGLLPQGFIQRELFSKLGELAVGMKSESRTIGEQCSVCGVELPDNEAVEQHRKLHSGMKTYGCELCGKRFLDSLRLRMHLLAHSAGAKAFVCDQCGAQFSKEDALETHRQTHTGTDMAVFCLLCGKRFQAQSALQQHMEVHAGVRSYICSECNRTFPSHTALKRHLRSHTGDHPYECEFCGSCFRDESTLKSHKRIHTGEKPYECNGCGKKFSLKHQLETHYRVHTGEKPFECKLCHQRSRDYSAMIKHLRTHNGASPYQCTICTEYCPSLSSMQKHMKGHKPEEIPPDWRIEKTYLYLCYV
In the case of B1, the binding entry in test [2] and in test [3] was “binds” in each case.

B2: endogenous human PLZF of HEK293 cells (protein, UniProt Q05516 1-673, looked up)
chain: MDLTKMGMIQLQNPSHPTGLLCKANQMRLAGTLCDVVIMVDSQEFHAHRTVLACTSKMFEILFHRNSQHYTLDFLSPKTFQQILEYAYTATLQAKAEDLDDLLYAAEILEIEYLEEQCLKMLETIQASDDNDTEATMADGGAEEEEDRKARYLKNIFISKHSSEESGYASVAGQSLPGPMVDQSPSVSTSFGLSAMSPTKAAVDSLMTIGQSLLQGTLQPPAGPEEPTLAGGGRHPGVAEVKTEMMQVDEVPSQDSPGAAESSISGGMGDKVEERGKEGPGTPTRSSVITSARELHYGREESAEQVPPPAEAGQAPTGRPEHPAPPPEKHLGIYSVLPNHKADAVLSMPSSVTSGLHVQPALAVSMDFSTYGGLLPQGFIQRELFSKLGELAVGMKSESRTIGEQCSVCGVELPDNEAVEQHRKLHSGMKTYGCELCGKRFLDSLRLRMHLLAHSAGAKAFVCDQCGAQFSKEDALETHRQTHTGTDMAVFCLLCGKRFQAQSALQQHMEVHAGVRSYICSECNRTFPSHTALKRHLRSHTGDHPYECEFCGSCFRDESTLKSHKRIHTGEKPYECNGCGKKFSLKHQLETHYRVHTGEKPFECKLCHQRSRDYSAMIKHLRTHNGASPYQCTICTEYCPSLSSMQKHMKGHKPEEIPPDWRIEKTYLYLCYV
Take B2: in test [4], the binding result is “binds”.

Values taken from patent US20110190142A1, “DETERMINATION OF RENIN-PRORENIN RECEPTOR ACTIVITY” (Charite- Universitatsmedizin Berlin, priority 2006, published 2011).
